Measured values from the supplement of paper PMC10849652.
The other results are listed elsewhere or left out.

Sequences of proteins named here, by UniProt entry; tags and fusion partners are left off. A change or cut given only in a name is not applied to a line headed by its entry.
UniProt P51665: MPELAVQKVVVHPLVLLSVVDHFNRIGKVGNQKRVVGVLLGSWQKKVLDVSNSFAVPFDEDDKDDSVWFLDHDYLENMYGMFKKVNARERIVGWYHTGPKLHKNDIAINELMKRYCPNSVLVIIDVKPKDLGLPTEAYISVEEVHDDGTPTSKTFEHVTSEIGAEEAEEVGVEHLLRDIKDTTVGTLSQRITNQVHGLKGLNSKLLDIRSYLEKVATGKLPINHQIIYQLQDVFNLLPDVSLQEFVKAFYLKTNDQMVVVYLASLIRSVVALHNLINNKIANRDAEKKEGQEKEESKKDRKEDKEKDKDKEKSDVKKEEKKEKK
UniProt P28072: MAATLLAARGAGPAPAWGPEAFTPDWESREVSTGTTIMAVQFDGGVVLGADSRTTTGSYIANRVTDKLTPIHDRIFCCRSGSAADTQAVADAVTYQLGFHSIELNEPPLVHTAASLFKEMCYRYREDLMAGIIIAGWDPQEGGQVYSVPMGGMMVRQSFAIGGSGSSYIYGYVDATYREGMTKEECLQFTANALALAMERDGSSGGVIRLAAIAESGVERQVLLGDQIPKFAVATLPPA
UniProt O00233: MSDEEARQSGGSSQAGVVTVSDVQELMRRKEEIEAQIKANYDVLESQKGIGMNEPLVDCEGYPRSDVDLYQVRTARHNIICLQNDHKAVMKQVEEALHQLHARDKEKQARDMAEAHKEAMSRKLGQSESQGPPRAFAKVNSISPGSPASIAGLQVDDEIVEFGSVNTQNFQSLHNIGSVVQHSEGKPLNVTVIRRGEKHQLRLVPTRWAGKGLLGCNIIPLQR
UniProt Q00577: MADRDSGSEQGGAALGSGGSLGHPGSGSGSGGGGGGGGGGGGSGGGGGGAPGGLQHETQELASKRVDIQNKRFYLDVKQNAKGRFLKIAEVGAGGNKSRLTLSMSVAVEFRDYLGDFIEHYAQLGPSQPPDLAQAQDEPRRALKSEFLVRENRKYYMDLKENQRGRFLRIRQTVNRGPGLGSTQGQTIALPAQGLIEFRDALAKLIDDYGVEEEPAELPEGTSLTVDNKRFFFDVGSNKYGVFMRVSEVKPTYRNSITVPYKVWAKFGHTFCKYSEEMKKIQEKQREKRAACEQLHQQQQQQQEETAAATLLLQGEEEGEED
UniProt Q08623: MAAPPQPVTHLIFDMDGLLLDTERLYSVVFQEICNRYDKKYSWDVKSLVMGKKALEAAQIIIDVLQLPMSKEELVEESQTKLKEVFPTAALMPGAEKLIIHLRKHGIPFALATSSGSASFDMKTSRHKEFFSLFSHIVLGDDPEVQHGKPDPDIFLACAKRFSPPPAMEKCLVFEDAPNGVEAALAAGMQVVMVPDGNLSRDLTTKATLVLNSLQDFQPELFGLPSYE
UniProt P62195, whole entry, looked up: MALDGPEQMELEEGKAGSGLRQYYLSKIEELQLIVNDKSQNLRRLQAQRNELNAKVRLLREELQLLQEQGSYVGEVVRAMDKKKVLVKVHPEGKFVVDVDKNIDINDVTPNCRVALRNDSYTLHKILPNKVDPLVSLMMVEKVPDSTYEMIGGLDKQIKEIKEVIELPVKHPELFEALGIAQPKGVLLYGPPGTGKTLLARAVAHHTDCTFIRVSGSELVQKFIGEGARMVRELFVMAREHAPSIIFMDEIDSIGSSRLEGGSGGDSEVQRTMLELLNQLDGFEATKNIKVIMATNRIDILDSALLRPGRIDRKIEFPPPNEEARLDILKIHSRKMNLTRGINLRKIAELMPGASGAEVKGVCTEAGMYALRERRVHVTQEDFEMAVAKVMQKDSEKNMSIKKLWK
UniProt Q16401: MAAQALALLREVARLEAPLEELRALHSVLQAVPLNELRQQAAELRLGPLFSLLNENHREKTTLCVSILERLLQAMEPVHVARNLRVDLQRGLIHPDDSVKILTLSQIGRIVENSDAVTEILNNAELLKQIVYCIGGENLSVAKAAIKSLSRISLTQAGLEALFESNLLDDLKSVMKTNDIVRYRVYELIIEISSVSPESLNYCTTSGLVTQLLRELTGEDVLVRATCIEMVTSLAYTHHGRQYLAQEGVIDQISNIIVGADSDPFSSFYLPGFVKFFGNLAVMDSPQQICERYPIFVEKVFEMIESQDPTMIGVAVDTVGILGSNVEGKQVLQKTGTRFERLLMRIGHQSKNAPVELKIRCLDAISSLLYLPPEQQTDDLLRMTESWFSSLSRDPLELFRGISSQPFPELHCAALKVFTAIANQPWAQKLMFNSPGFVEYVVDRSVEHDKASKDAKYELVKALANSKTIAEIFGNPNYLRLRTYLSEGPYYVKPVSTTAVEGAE
UniProt Q9BRX8: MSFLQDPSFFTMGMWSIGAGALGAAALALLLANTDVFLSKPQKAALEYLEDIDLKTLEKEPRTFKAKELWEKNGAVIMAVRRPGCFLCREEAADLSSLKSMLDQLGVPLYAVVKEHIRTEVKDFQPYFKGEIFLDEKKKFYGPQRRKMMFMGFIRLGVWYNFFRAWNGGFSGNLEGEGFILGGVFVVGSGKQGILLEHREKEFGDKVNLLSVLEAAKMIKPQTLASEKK
UniProt P18433: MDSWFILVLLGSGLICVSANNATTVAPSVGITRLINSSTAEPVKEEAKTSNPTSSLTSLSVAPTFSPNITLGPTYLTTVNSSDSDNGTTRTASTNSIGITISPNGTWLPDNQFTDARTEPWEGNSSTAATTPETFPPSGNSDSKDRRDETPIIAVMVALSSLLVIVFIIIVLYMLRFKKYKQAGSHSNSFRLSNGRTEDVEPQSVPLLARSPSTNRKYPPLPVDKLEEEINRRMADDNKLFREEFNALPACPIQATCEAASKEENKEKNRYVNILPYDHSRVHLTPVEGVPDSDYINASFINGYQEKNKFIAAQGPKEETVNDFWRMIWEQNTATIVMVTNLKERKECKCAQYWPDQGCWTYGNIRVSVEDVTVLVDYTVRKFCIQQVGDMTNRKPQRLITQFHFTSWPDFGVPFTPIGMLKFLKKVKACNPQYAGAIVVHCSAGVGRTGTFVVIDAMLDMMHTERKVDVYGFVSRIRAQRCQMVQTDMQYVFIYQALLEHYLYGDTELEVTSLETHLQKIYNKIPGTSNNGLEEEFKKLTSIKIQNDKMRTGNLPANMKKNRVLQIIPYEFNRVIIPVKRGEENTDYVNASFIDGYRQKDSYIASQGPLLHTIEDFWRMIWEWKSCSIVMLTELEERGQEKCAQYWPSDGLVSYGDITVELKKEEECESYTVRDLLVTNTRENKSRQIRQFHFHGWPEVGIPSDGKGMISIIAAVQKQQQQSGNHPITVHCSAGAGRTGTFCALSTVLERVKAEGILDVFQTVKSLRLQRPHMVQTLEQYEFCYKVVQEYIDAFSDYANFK
UniProt Q6GMV3: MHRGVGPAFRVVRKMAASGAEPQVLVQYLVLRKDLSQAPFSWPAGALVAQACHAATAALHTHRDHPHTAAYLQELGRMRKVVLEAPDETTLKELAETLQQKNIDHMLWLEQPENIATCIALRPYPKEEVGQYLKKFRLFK
UniProt Q96BW5: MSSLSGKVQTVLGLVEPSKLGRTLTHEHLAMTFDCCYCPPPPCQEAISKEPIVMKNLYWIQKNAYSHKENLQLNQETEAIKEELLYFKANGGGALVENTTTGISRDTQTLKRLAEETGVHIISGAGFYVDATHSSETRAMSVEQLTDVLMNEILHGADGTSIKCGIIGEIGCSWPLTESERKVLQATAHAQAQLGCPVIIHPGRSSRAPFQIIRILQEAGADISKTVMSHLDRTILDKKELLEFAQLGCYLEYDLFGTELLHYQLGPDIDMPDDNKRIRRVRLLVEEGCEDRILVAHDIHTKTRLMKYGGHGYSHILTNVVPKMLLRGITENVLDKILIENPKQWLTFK
UniProt O95758: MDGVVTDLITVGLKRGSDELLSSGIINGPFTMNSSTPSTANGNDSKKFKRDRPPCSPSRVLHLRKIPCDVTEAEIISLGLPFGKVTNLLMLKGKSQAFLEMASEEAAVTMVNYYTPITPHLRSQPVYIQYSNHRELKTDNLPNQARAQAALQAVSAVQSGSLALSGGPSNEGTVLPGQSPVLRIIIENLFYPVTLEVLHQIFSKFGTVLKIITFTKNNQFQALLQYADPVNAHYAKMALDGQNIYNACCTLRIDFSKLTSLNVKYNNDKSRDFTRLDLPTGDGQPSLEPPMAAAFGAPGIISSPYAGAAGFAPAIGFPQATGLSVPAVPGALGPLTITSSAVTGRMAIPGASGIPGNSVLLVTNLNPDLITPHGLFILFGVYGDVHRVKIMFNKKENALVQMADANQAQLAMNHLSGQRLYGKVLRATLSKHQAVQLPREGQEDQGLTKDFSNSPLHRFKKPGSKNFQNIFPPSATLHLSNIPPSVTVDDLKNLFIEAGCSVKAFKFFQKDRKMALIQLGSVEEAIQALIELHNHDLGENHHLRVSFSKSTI
UniProt Q99460, whole entry, looked up: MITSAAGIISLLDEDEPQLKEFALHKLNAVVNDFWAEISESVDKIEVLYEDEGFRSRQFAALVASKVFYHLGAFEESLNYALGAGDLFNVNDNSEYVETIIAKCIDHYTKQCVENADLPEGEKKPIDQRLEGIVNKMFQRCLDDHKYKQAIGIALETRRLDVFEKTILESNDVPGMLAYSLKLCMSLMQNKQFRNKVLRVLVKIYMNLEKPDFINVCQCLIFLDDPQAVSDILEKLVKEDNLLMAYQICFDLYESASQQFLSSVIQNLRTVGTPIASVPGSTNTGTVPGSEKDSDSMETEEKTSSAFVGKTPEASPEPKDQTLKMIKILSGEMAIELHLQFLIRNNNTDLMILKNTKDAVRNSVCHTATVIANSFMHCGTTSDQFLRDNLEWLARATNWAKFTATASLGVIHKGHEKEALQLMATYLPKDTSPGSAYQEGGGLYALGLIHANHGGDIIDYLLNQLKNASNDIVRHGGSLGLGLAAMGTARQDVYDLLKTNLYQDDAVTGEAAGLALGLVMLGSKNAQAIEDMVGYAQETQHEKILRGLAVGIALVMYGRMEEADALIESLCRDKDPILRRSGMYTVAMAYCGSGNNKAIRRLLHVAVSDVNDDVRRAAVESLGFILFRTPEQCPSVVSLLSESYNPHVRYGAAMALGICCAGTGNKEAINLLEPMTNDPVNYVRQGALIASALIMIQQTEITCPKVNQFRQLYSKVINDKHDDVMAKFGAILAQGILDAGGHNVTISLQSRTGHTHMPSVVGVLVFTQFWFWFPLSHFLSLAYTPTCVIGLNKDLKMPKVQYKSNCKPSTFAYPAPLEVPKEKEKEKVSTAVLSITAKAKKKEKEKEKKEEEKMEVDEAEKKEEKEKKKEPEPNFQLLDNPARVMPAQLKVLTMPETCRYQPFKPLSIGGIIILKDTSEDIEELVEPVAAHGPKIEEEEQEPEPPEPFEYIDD
UniProt Q7Z6K3: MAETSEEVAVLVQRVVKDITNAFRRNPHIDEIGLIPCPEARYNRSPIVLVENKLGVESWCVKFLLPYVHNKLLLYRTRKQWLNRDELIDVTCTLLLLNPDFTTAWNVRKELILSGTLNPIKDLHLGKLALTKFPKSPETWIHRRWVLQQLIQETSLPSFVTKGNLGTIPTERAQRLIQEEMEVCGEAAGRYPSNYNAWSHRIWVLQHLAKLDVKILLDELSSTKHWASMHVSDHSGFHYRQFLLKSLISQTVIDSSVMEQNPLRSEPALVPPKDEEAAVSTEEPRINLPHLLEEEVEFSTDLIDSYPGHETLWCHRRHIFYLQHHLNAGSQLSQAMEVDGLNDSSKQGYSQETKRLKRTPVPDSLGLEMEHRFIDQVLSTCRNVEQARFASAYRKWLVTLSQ
UniProt Q96I23: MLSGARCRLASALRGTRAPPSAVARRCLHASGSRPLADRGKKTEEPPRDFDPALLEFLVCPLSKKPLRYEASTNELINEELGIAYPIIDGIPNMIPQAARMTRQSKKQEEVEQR
UniProt Q2TAL8: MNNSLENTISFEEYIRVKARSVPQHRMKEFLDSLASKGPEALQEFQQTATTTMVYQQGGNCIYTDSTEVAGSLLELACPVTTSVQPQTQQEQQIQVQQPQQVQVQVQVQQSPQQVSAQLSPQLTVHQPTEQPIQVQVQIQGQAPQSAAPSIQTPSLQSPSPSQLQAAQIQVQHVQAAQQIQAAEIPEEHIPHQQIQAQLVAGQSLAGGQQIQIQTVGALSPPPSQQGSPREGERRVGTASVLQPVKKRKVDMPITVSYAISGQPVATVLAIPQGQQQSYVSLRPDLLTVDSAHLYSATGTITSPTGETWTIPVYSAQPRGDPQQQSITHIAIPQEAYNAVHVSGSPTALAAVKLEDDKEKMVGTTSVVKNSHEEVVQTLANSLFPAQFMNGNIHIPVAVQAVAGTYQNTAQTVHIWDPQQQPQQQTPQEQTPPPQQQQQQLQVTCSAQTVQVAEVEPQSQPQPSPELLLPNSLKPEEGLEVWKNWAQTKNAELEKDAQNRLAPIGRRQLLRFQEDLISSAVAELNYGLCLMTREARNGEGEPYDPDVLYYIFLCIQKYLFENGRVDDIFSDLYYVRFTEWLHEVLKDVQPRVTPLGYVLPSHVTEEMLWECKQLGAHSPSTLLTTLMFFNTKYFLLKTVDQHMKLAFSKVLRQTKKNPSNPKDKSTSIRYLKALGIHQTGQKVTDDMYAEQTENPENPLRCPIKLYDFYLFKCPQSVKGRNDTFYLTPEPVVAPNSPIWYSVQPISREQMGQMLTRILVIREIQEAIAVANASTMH

Tests used:
Test in all cases: log2 fold change, soluble protein after heating vs DMSO (PISA); higher = thermal stabilisation; K562 cells, 10 uM, 30 min; active = over 0.2 and 3.5 SD of the protein, either way, in both replicates (recomputed)
[1] = compound: C1=CC=C(C=C1)[C@H](COC2=CC3=C(C=C2)NC(=O)N3)NC(=O)C4=CC=CN(C4=O)CC5=CC(=C(C=C5)F)F
In short: (§1)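 K562 cells at 2×10^6 cells/mL were treated for 30 min with 10 μM compound, and aliquots were heated for 3 min over 48°C-58°C before pooling. Extraction used PBS with 0.5% NP-40 at 4°C, and soluble protein was the supernatant after 21,000xg for 90 min, measured by TMTpro 16plex LC-MS/MS with channel sums equalised. Thermal stability values, relative to control samples and from duplicates, are log2 fold changes.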

[2] = compound: CC1=C(SC2=C1C(=N[C@H](C3=NN=C(N32)C)CC(=O)N)C4=CC=C(C=C4)Cl)C
In short: as §1

[3] = compound: CC1=C2C(=CC=C1)N=C(N(C2=O)C3=CC=CC=C3C)CN4C=NC5=C(N=CN=C54)N
In short: as §1

[4] = compound: Cc1sc2c(c1C)C(c1ccc(Cl)cc1)=N[C@@H](CC(=O)OC(C)(C)C)c1nnc(C)n1-2
In short: as §1

[5] = compound: c1ccc([C@@H]2C[C@H]2NC2CCNCC2)cc1
In short: as §1

Measured: log2 fold change

PYCARD (UniProt Q9ULZ3)
inactive: [1] -0.05 | [2] 0.072 | [3] 0.076 | [4] -0.053 | [5] -0.022

PSMD7 (UniProt P51665)
inactive: [1] 0.033 | [2] -0.102 | [3] -0.024 | [4] 0.034 | [5] 0

PSMD3 (UniProt O43242)
inactive: [1] 0.028 | [2] -0.055 | [3] -0.006 | [4] -0.023 | [5] -0.011

PSMD13 (UniProt Q9UNM6)
inactive: [1] -0.008 | [2] -0.096 | [3] -0.046 | [4] -0.028 | [5] 0

PSMB6 (UniProt P28072)
inactive: [1] 0.023 | [2] -0.057 | [3] -0.015 | [4] 0.019 | [5] 0.081

PSME4 (UniProt Q14997)
inactive: [1] -0.041 | [2] 0.017 | [3] 0.017 | [4] -0.025 | [5] -0.048

PSMC4 (UniProt P43686)
inactive: [1] 0.022 | [2] -0.117 | [3] -0.022 | [4] 0.006 | [5] 0.001

PYGB (UniProt P11216)
inactive: [1] 0.024 | [2] 0.037 | [3] 0.003 | [4] 0.015 | [5] -0.003

PSMD9 (UniProt O00233)
inactive: [1] 0.014 | [2] 0.017 | [3] -0.004 | [4] 0.007 | [5] 0.016

PXMP2 (UniProt Q9NR77)
inactive: [1] 0.042 | [2] 0.04 | [3] 0.066 | [4] -0.007 | [5] 0.017

QTRT1 (UniProt Q9BXR0)
inactive: [1] 0.032 | [2] -0.005 | [3] 0.055 | [4] -0.023 | [5] -0.014

PUS10 (UniProt Q3MIT2)
inactive: [1] 0 | [2] 0.031 | [3] 0.059 | [4] 0.011 | [5] -0.121

PURA (UniProt Q00577)
inactive: [1] 0.116 | [2] -0.403 | [3] -0.092 | [4] 0.298 | [5] 0.043

PTRH2 (UniProt Q9Y3E5)
inactive: [1] 0.018 | [2] 0.068 | [3] 0.019 | [4] -0.106 | [5] -0.02

PSMC1 (UniProt P62191)
inactive: [1] 0.047 | [2] -0.09 | [3] -0.002 | [4] 0 | [5] 0

PUS1 (UniProt Q9Y606)
inactive: [1] 0.121 | [2] -0.036 | [3] 0.013 | [4] 0.092 | [5] -0.093

PSMG3 (UniProt Q9BT73)
inactive: [1] 0.02 | [2] 0.079 | [3] -0.057 | [4] -0.102 | [5] 0.067

PSMC3IP (UniProt Q9P2W1)
inactive: [1] -0.003 | [2] 0.108 | [3] 0.184 | [4] 0.142 | [5] 0.097

PSMG1 (UniProt O95456)
inactive: [1] 0.005 | [2] 0 | [3] -0.029 | [4] 0.013 | [5] 0.038

PSIP1 (UniProt O75475)
inactive: [1] 0.058 | [2] -0.082 | [3] -0.087 | [4] 0.1 | [5] 0.016

PUDP isoform 4 (UniProt Q08623)
inactive: [1] 0.007 | [2] 0.097 | [3] 0 | [4] -0.071 | [5] -0.014

Copied from the entries so far (3 entries):
PUS1 (UniProt Q9Y606)
inactive: [1] 0.121 | [2] -0.036 | [3] 0.013 | [4] 0.092 | [5] -0.093

PSMG3 (UniProt Q9BT73)
inactive: [1] 0.02 | [2] 0.079 | [3] -0.057 | [4] -0.102 | [5] 0.067

PSMC3IP (UniProt Q9P2W1)
inactive: [1] -0.003 | [2] 0.108 | [3] 0.184 | [4] 0.142 | [5] 0.097

The list goes on.

PSMC5 (UniProt P62195)
inactive: [1] 0.017 | [2] -0.087 | [3] -0.045 | [4] 0.006 | [5] 0.01

PTP4A2 (UniProt Q12974)
inactive: [1] -0.021 | [2] 0.028 | [3] 0.056 | [4] 0.052 | [5] -0.029

PTPN1 (UniProt P18031)
inactive: [1] -0.057 | [2] -0.036 | [3] 0.038 | [4] -0.004 | [5] -0.025

PSMD5 (UniProt Q16401)
inactive: [1] 0 | [2] 0.028 | [3] 0.006 | [4] -0.006 | [5] -0.001

PRXL2A (UniProt Q9BRX8)
inactive: [1] 0.035 | [2] 0.04 | [3] 0.102 | [4] 0.076 | [5] -0.044

PUM1 isoform 3 (UniProt Q14671)
inactive: [1] 0.004 | [2] -0.036 | [3] 0.056 | [4] 0.025 | [5] -0.049

PTPRA (UniProt P18433)
inactive: [1] -0.088 | [2] 0.022 | [3] 0.079 | [4] 0.002 | [5] 0.021

QTRT2 isoform 4 (UniProt Q9H974)
inactive: [1] 0.022 | [2] 0.007 | [3] 0.059 | [4] -0.01 | [5] 0.004

QRSL1 (UniProt Q9H0R6)
inactive: [1] -0.01 | [2] 0.142 | [3] 0.147 | [4] 0.05 | [5] 0.041

PTRHD1 (UniProt Q6GMV3)
inactive: [1] -0.002 | [2] 0.056 | [3] 0.046 | [4] -0.073 | [5] 0.033

PYM1 (UniProt Q9BRP8)
inactive: [1] 0.051 | [2] -0.101 | [3] -0.087 | [4] 0.056 | [5] 0.027

PTER (UniProt Q96BW5)
inactive: [1] -0.001 | [2] 0.033 | [3] 0.006 | [4] 0.003 | [5] -0.011

QKI (UniProt Q96PU8)
inactive: [1] -0.016 | [2] 0.039 | [3] 0.105 | [4] -0.082 | [5] 0.01

PTBP3 isoform 4 (UniProt O95758)
inactive: [1] -0.011 | [2] 0.007 | [3] 0.031 | [4] 0.017 | [5] 0.032

PTPRC (UniProt P08575)
inactive: [1] -0.013 | [2] 0.046 | [3] 0.027 | [4] 0.028 | [5] 0.033

PWP1 (UniProt Q13610)
inactive: [1] 0.118 | [2] -0.348 | [3] -0.269 | [4] 0.23 | [5] 0.009

PURB (UniProt Q96QR8)
inactive: [1] 0.018 | [2] -0.261 | [3] -0.112 | [4] 0.203 | [5] 0.115

PSMD1 (UniProt Q99460)
inactive: [1] 0.017 | [2] -0.087 | [3] -0.058 | [4] -0.017 | [5] 0

PRSS21 (UniProt Q9Y6M0)
inactive: [1] 0.143 | [2] 0.043 | [3] 0.002 | [4] -0.006 | [5] -0.091

PTAR1 (UniProt Q7Z6K3)
inactive: [1] 0.035 | [2] 0.034 | [3] 0.015 | [4] 0.005 | [5] -0.014

PYURF (UniProt Q96I23)
inactive: [1] -0.094 | [2] 0.025 | [3] 0.084 | [4] -0.064 | [5] 0.105

PTPN11 isoform 1 (UniProt Q06124)
inactive: [1] -0.029 | [2] 0.035 | [3] 0 | [4] -0.019 | [5] -0.021

PTDSS1 (UniProt P48651)
inactive: [1] -0.027 | [2] -0.072 | [3] -0.115 | [4] 0.042 | [5] 0.017

PTPN23 (UniProt Q9H3S7)
inactive: [1] -0.038 | [2] 0.048 | [3] 0.054 | [4] 0 | [5] 0.038

PSPH (UniProt P78330)
inactive: [1] 0.018 | [2] 0.094 | [3] 0.079 | [4] -0.011 | [5] -0.045

PSMA3 (UniProt P25788)
inactive: [1] 0.051 | [2] -0.062 | [3] -0.022 | [4] -0.036 | [5] -0.029

PTS (UniProt Q03393)
inactive: [1] 0.025 | [2] 0.052 | [3] 0.103 | [4] 0.098 | [5] -0.03

PSMC2 (UniProt P35998)
inactive: [1] 0.031 | [2] -0.085 | [3] -0.092 | [4] 0.002 | [5] 0.001

QRICH1 (UniProt Q2TAL8)
inactive: [1] -0.029 | [2] -0.148 | [3] 0 | [4] -0.02 | [5] -0.016

PSMB7 (UniProt Q99436)
inactive: [1] 0.086 | [2] -0.03 | [3] -0.023 | [4] 0.017 | [5] 0.042

PSMA7 (UniProt O14818)
inactive: [1] 0.04 | [2] -0.032 | [3] -0.062 | [4] 0.006 | [5] -0.028

PUF60 (UniProt Q9UHX1)
inactive: [1] 0.031 | [2] 0.033 | [3] 0.081 | [4] -0.036 | [5] 0.007

PSMD10 (UniProt O75832)
inactive: [1] -0.019 | [2] 0.028 | [3] 0.121 | [4] -0.063 | [5] -0.067
